The assay has as its target T1, MT-JIP3 (JIP3 R578C), endogenous in patient cells (human (endogenous in patient fibroblasts and patient iPSC-derived neurons)) (UniProt Q9UPT6).
T1 sequence: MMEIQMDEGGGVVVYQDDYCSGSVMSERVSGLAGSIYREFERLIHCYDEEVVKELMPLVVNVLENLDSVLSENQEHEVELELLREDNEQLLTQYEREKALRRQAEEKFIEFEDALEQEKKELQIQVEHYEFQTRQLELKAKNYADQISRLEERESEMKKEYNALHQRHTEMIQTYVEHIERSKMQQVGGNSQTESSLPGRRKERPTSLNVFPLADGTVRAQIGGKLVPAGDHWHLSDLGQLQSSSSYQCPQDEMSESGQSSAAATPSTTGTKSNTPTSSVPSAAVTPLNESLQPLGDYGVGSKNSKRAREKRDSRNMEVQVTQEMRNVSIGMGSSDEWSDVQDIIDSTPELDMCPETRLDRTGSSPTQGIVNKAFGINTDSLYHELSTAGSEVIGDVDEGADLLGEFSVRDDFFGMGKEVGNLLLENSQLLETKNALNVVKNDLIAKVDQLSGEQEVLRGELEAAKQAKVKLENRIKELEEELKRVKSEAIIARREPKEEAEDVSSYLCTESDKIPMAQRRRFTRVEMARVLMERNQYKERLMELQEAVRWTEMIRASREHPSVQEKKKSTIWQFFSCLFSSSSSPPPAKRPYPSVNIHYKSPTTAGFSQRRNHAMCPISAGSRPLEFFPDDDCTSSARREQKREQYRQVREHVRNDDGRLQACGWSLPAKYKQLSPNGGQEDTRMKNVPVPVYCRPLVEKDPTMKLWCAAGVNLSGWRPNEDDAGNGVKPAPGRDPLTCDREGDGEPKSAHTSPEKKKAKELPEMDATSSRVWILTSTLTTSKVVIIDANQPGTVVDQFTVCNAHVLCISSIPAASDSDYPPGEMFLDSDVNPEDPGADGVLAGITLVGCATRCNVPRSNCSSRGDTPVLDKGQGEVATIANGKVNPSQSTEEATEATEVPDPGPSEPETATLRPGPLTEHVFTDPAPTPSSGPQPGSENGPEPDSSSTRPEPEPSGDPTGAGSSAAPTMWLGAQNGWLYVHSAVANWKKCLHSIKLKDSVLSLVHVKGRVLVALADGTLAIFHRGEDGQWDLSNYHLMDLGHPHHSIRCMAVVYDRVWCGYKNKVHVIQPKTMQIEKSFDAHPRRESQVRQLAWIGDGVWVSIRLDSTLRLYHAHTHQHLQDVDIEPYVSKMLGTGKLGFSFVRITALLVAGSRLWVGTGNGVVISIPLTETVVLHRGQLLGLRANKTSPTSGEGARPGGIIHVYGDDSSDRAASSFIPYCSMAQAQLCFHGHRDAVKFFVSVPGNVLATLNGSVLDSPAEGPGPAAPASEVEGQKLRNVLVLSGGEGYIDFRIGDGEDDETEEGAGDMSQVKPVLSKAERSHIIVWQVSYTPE
Nature of the assay: co-IP; lysates of CRISPR control and patient iPSC-derived neurons (Supplemental Figure 3D); precipitating antibody not given.

By UniProt entry, the sequences of proteins in these tests, tags left out.
UniProt P33176: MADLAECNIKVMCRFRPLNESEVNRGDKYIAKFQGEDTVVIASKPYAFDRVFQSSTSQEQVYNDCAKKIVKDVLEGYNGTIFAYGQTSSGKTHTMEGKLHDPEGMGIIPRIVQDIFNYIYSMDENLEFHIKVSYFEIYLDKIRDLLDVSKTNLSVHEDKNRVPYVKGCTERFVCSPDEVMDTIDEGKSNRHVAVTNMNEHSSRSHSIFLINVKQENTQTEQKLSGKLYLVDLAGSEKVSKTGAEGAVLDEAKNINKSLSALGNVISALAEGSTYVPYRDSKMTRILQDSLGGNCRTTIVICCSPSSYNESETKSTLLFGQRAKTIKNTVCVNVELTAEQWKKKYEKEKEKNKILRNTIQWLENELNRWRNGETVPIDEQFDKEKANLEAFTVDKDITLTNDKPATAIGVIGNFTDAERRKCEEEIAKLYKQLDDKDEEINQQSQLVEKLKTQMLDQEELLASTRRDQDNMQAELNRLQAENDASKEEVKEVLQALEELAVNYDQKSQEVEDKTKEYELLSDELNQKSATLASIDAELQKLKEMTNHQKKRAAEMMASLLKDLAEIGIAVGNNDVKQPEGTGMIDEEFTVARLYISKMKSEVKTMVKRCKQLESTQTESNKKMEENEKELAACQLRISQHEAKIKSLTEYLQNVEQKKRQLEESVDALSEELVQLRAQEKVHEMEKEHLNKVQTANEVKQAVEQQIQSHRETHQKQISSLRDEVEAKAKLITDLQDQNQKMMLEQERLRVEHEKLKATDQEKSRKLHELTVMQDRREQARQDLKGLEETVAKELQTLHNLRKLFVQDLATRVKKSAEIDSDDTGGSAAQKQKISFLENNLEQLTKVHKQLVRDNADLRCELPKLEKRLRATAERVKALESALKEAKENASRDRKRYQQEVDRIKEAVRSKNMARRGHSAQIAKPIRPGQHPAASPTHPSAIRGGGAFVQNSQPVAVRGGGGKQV

No constants are given. Whether binding was seen depends on the method and setting. Binding seen in cells or lysates may run through a third protein. Some entries that bind do so weakly or less than the wild type.

For the substance KIF5B (from UniProt P33176 1-963), the binding entry is given as “binds”.

Values taken from article PMC12016931.
